Substitutions are numbered along the chain they refer to. For part of these data: Negatives hold for the conditions tested. Where a protein sequence is shown, tags need not be part of it.
Assays:
Assay in all cases: enzyme reaction in vitro
[1] = system: T1, Helraiser transposase (RepHel, Helitron) (Myotis lucifugus); settings: purified recombinant protein, protein details: His tag (pFastBac HT-A), TEV-cleaved, insect cells, label: 6-FAM, single-stranded DNA
T1 sequence: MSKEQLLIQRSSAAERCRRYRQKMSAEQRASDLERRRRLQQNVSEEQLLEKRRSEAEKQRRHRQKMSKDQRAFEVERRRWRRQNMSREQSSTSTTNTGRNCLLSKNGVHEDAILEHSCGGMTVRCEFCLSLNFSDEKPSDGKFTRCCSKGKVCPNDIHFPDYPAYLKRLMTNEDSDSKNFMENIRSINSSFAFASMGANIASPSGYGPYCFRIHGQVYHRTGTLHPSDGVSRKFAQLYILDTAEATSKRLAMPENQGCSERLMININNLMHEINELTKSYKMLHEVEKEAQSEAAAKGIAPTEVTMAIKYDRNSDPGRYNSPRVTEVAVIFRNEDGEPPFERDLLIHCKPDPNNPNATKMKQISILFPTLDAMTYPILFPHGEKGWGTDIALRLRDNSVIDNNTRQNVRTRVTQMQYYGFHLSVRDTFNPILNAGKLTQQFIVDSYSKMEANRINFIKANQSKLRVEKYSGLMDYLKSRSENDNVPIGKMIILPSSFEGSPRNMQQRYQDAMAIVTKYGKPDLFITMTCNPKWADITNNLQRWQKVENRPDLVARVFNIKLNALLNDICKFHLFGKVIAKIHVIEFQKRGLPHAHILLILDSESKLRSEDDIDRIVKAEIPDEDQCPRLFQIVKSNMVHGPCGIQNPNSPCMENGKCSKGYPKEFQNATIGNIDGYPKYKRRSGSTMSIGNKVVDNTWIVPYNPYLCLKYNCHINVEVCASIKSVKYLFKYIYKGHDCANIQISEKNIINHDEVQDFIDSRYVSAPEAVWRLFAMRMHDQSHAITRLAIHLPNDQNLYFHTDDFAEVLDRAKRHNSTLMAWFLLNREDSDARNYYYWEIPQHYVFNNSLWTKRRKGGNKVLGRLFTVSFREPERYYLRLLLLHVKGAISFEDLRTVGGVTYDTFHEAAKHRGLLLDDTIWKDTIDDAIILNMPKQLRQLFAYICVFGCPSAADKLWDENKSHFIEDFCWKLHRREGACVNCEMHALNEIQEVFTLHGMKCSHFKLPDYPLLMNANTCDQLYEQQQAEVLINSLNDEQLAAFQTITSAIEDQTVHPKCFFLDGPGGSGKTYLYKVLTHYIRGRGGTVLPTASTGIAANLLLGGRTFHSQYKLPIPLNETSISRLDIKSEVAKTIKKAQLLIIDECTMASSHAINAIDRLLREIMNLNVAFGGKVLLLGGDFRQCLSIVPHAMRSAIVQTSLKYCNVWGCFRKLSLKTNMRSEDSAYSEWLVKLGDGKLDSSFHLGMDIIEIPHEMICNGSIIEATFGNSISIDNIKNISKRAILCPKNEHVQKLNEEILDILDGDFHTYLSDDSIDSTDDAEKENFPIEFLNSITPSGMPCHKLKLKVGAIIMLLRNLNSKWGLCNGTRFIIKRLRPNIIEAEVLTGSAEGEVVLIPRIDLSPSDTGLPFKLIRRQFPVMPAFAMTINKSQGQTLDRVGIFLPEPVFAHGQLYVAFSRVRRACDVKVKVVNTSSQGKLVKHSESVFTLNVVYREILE

[2] = system: T2, Helraiser transposase K1068Q (Myotis lucifugus); settings: cleavage unaffected; purified recombinant protein; protein details: His tag, TEV-cleaved; label: 6-FAM; single-stranded DNA
T2 sequence: T1 sequence with K1068Q

[3] = system: T3, Helraiser transposase Y727F (Myotis lucifugus); settings: cleavage as wild type; purified recombinant protein; protein details: His tag, TEV-cleaved; label: 6-FAM; single-stranded DNA
T3 sequence: T1 sequence with Y727F

[4] = system: T4, Helraiser nuclease domain (printed HelR400-745) (Myotis lucifugus); settings: no cleavage; purified recombinant protein; protein details: His tag, TEV-cleaved; label: 6-FAM; single-stranded DNA
T4 sequence: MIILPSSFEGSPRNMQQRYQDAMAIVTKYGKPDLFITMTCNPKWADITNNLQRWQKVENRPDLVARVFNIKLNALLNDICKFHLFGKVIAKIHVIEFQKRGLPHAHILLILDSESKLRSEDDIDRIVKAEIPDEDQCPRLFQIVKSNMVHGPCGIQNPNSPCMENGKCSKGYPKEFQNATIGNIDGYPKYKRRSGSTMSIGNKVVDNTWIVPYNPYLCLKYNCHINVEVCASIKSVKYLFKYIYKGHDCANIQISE

[5] = system: T5, Helraiser nuclease-helicase HelR490-1486 (Myotis lucifugus); settings: no cleavage; purified recombinant protein; protein details: His tag, TEV-cleaved; label: 6-FAM; single-stranded DNA
T5 sequence: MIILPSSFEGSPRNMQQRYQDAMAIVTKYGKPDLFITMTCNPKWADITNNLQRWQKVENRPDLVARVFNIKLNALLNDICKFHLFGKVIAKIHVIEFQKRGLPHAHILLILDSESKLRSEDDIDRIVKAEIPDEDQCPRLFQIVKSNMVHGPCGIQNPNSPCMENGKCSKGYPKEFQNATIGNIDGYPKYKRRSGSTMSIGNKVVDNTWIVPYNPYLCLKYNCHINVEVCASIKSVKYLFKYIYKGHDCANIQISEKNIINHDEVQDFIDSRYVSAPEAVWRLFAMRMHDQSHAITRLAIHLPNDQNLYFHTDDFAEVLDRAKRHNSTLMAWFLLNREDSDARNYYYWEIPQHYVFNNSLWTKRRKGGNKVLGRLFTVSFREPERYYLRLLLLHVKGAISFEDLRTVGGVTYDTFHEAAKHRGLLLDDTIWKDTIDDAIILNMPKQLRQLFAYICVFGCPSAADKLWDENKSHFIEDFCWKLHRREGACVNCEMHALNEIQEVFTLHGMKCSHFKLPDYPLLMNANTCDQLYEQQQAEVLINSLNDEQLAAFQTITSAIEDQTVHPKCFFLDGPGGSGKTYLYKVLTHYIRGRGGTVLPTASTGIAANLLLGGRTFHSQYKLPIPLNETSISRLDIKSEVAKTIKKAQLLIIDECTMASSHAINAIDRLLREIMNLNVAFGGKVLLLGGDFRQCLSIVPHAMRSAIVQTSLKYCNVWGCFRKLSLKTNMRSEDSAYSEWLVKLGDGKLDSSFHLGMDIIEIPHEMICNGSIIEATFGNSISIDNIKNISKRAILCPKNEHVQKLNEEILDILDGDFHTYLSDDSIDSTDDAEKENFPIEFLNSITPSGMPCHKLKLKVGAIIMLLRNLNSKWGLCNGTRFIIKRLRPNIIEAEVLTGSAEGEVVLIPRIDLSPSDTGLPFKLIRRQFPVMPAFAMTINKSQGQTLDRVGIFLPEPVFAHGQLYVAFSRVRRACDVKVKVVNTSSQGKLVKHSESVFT

| Sequence | activity on this sequence ([1]; cleaved, Mn2+ more efficient than Mg2+, none without metal, dsDNA not cleaved) | activity on this sequence [2] | activity on this sequence [3] | activity on this sequence [4] | activity on this sequence [5] | activity on this sequence ([1]; cleaved precisely at transposon end) |
| --- | --- | --- | --- | --- | --- | --- |
| CACCATATGATCCTATATAATAAAAGAGAAACATGCAAATTGACCATCCC [Helraiser LTS substrate (+), top strand] | active | active | active | not active | not active |  |
| CCCTTTCAATGTGCACGAATTTCGTGCACCGGGCCACTAGTATATATATA [Helraiser RTS substrate (+), top strand] |  |  |  |  |  | active |
